Assay results: US20240208984A1, “BIVALENT LIGANDS TO UNDERSTAND DIMERIZATION OF THE MU OPIOID RECEPTOR AND THE CHEMOKINE RECEPTOR CCR5 IN NEUROLOGICAL DISORDERS” (priority 2021, published 2024)

Test system: HIV-1BaL Env-pseudotyped Luc-expressing virus
Assay: HIV-1 infection assay in PHA-stimulated PBMC cells
Assay type: cell-based
Settings: PHA-stimulated PBMCs; 10 nM
Protocol: Peripheral blood mononuclear cells (PBMCs) include large numbers of CCR5-expressing leukocytes and are susceptible to infection by R5-tropic HIV-1 strains.
In a 24-well plate, PHA-stimulated PBMC cells from healthy donors were infected by incubation with the HIV-1BaL.01 env-pseudotyped Luc virus. A concentration of HIV-1 p24 50 pg/106 cells was used, and uninfected cells served as a negative control. […] After approximately 18-20 h, the supernatant was removed and stored at −80° C., cells were rinsed twice with PBS and lysed. The lysate was subsequently tested for the relative Tat protein expression by using a luciferase assay system (Promega). Luciferase activity was measured using a PHERASTAR® FS plate reader (BMG Labtech).

For `CN1CC[C@]23c4c5ccc(O)c4O[C@H]2[C@@H](O)C=C[C@H]3[C@H]1C5` [morphine, reference compound], the “effect of opioid exposure on HIV expression” value was “remarkable increases in HIV expression”.
